The text below walks through data of article PMC11484822.

Protein sequences, listed by entry. Tags and fused reporters are not part of them. Lines headed by an entry give the natural chain unless they say otherwise; changes in a name come on top.
UniProt Q14974: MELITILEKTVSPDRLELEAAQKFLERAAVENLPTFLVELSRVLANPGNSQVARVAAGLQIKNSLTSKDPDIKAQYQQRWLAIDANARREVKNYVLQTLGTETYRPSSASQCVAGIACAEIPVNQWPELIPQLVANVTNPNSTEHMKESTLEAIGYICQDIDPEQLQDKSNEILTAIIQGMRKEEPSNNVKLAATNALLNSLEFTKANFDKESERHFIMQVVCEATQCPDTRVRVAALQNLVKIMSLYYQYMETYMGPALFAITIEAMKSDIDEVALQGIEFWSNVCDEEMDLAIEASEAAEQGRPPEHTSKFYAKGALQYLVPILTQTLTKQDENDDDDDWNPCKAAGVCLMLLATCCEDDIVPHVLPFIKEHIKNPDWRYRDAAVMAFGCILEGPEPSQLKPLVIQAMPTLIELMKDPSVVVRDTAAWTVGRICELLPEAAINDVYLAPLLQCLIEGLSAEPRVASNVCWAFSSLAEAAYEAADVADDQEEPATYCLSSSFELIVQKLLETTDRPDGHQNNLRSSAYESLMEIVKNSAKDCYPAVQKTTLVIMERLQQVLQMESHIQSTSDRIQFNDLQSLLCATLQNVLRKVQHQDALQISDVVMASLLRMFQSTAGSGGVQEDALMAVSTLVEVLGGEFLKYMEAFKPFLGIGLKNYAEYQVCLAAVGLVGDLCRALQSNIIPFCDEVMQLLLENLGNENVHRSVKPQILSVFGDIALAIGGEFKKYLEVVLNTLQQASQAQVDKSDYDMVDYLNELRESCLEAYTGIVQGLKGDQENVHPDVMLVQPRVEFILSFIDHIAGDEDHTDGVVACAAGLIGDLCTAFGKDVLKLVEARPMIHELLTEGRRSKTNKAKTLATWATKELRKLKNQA
UniProt Q96SK2: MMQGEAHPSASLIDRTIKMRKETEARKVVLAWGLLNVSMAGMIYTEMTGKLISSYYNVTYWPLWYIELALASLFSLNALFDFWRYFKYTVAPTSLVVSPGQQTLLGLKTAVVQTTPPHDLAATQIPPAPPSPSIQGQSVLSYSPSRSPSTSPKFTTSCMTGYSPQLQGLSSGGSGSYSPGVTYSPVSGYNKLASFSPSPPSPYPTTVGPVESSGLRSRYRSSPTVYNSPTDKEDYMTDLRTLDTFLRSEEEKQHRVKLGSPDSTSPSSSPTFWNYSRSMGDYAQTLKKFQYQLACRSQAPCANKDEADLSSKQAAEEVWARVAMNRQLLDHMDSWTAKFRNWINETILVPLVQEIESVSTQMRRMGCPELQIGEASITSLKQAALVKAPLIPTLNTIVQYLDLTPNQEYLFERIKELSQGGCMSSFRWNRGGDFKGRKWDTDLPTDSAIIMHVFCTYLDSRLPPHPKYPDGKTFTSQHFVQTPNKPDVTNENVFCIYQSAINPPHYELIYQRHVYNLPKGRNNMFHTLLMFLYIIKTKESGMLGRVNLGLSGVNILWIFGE

No constants are given. Whether binding was seen depends on the method and setting. Binding seen in cells or lysates may run through a third protein. Some entries that bind do so weakly or less than the wild type.

The target of assay [1] is HA-KPNB1 expressed in HEK-293T cells (UniProt Q14974). Nature of the assay: co-IP; HEK-293T cells transfected with Flag-TMEM209 or HA-KPNB1, alone or simultaneously; IP lysis buffer, antibody-bound magnetic beads, 4 °C, 12 h; western blot.
The target in assay [2] is Flag-TMEM209 expressed in HEK-293T cells (UniProt Q96SK2). The assay is described as above.
Assay [3] concerns the target TMEM209 of the IP mapping assays in HEK-293T cells (UniProt Q96SK2). Nature of the assay: co-IP; IP mapping with fragments of KPNB1 in HEK-293T cells; western blot. (In general: Immunoblotting shows a protein as a band on a membrane.)
The target of assay [4] is KPNB1 of the GST pull-down (UniProt Q14974). Kind of assay: pull-down; GST pull-down, 'in HEK-293T cells'; which partner carried GST is not stated.
The target in assay [5] is Karyopherin-β1 (KPNB1), endogenous in MHCC-97H and Huh7 cells (human (endogenous in MHCC-97H and Huh7)) (UniProt Q14974). Nature of the assay: co-IP; endogenous proteins in wild-type MHCC-97H and Huh7 cells; western blot.
For assay [6] the target is unchanged. Kind of assay: co-IP; KPNB1 and RCHY1 in MHCC-97H/Huh7 cells; western blot.
For assay [7] the target is unchanged. Kind of assay: co-IP; KPNB1 and RCHY1 in MHCC-97H/Huh7 cells overexpressing TMEM209 or transfected with increasing doses of TMEM209; western blot.

As for “Flag-TMEM209 expressed in HEK-293T cells (from UniProt Q96SK2 1-561)”, the binding result in assay [1] was “binds”.

As to “HA-KPNB1 expressed in HEK-293T cells (from UniProt Q14974 1-876)”, the binding result in assay [2] was “binds”.

As for “KPNB1 residues 1-211 (from UniProt Q14974 1-211) (domain or fragment)”, the binding result in assay [3] was “binds”.

As to “TMEM209 of the GST pull-down (from UniProt Q96SK2 1-561)”, the binding result in assay [4] is “binds”.

As to “Transmembrane protein 209 (TMEM209), endogenous in MHCC-97H and Huh7 cells (from UniProt Q96SK2 1-561)”, in assay [5], the binding result is given as “binds”.

B1: RING finger and CHY zinc finger domain-containing protein 1 (RCHY1) (enzyme, UniProt Q96PM5 1-261)
chain: MAATAREDGASGQERGQRGCEHYDRGCLLKAPCCDKLYTCRLCHDNNEDHQLDRFKVKEVQCINCEKIQHAQQTCEECSTLFGEYYCDICHLFDKDKKQYHCENCGICRIGPKEDFFHCLKCNLCLAMNLQGRHKCIENVSRQNCPICLEDIHTSRVVAHVLPCGHLLHRTCYEEMLKEGYRCPLCMHSALDMTRYWRQLDDEVAQTPMPSEYQNMTVDILCNDCNGRSTVQFHILGMKCKICESYNTAQAGGRRISLDQQ
B1: the binding entry in assay [6] and in assay [7] was “binds” throughout.
